In paper PMC4682924:
No constants are given. Whether binding was seen depends on the method and setting. Binding seen in cells or lysates may run through a third protein. Some results given as binding are weak or reduced against the parent protein; the word gives no strength.

By UniProt entry, the sequences of proteins in these tests, tags left out.
UniProt P35465: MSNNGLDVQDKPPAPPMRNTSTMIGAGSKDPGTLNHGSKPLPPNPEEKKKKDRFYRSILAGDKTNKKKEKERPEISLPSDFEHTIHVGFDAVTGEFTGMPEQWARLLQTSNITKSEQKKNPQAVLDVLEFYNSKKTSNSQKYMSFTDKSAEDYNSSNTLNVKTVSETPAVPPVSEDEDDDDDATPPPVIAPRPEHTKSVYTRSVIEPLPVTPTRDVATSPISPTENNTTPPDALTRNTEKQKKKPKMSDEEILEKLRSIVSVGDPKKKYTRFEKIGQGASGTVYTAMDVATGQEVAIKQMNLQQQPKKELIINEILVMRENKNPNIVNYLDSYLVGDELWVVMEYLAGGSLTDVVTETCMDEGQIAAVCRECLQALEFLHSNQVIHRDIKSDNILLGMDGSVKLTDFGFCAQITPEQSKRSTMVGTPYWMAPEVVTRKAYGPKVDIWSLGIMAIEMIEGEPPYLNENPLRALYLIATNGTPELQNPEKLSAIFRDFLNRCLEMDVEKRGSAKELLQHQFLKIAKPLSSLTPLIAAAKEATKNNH
UniProt Q64303: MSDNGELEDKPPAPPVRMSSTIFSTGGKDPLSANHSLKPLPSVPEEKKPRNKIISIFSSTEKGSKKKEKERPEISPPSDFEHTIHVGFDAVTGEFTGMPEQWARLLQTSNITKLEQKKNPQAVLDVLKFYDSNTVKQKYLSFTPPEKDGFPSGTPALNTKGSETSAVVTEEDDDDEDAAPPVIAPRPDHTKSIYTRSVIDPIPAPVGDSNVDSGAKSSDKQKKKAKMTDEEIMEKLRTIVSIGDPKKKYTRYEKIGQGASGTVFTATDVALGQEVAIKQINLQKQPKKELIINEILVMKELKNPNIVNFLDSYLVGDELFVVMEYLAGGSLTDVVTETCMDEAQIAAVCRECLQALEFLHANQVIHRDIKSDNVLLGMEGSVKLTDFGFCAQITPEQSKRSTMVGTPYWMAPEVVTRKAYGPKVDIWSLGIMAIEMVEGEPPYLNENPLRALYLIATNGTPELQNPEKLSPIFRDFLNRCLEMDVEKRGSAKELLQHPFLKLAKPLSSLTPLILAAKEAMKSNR
UniProt Q4G017: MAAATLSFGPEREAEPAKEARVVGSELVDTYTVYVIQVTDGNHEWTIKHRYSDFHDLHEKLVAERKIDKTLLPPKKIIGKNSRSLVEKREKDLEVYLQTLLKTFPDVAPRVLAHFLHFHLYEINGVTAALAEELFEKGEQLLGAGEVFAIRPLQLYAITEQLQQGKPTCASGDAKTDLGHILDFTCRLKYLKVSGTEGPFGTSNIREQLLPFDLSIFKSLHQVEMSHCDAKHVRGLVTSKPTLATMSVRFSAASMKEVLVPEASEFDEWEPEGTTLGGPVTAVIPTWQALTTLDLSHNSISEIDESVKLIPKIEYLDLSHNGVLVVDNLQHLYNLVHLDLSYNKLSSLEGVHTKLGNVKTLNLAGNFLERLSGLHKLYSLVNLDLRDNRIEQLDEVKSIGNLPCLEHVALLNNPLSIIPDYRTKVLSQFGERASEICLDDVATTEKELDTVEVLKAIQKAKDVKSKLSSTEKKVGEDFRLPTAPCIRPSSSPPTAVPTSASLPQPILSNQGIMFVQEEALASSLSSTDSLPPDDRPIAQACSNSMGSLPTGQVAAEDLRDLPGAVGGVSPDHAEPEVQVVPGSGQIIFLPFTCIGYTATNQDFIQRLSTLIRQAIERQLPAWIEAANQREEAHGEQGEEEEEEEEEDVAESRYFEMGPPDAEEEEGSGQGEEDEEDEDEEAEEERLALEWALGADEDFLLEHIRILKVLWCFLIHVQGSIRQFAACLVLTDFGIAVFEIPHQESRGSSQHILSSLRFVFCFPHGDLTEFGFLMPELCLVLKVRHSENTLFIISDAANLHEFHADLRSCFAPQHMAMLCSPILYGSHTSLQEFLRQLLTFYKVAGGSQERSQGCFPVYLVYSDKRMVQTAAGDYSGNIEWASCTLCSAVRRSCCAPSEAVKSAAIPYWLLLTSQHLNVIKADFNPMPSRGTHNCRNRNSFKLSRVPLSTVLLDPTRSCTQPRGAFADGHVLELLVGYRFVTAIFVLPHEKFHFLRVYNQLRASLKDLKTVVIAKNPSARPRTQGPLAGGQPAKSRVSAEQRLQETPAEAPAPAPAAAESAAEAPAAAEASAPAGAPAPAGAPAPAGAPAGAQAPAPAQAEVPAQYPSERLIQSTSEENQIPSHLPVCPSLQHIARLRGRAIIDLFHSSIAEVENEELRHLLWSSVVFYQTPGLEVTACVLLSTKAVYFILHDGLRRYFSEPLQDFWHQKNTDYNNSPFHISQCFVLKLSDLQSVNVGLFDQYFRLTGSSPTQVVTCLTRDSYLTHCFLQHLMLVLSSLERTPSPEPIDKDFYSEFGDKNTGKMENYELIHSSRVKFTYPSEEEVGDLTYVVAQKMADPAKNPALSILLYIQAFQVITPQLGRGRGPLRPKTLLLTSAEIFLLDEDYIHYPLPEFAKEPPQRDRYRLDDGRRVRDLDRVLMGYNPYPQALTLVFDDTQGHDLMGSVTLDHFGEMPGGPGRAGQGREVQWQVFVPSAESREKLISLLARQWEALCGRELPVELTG

How the values were obtained:
[1] = target: p21-activated kinase 1 (rat (endogenous in rat cortical neurons)) (UniProt P35465); test: co-IP; endogenous proteins; rat cortical neuron lysates (500 μl, 3 μg/μl) in RIPA lysis buffer with protease and phosphatase inhibitors, incubated with anti-Nischarin, anti-PAK1 or anti-PAK2 antibody at 4°C for 6 h, Protein G-Sepharose beads 2 h, washed three times; western blot; IgG as negative control
[2] = target: p21-activated kinase 2 (rat (endogenous in rat cortical neurons)) (UniProt Q64303); test: as above

Substance: Nischarin (from UniProt Q4G017 1-1502)
- binding [1]: binds
- binding [2]: binds
